Some of the results follow.

The target in the assay is T1, OsSMF1 (Oryza sativa, UniProt Q6ZLB0 1-436).
T1 sequence: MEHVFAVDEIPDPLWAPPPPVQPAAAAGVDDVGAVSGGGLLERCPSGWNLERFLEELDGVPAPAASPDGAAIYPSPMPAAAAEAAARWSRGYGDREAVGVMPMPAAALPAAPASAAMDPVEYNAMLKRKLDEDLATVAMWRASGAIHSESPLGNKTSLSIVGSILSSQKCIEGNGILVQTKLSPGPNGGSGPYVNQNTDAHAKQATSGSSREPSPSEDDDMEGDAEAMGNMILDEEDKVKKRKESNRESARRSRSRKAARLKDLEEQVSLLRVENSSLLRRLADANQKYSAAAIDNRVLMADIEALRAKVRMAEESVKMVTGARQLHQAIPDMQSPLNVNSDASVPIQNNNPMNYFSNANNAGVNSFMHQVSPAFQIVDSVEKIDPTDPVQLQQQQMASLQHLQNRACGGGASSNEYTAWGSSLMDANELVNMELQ
Nature of the assay: protein-binding microarray (RPBM); PBS, 2% BSA, 51.3 ng/ul salmon testes DNA, 50 uM zinc acetate, 200 nM TF, 25 C, 1 h; high values mean tight binding. The note with it: protein: recombinant; tags: N-terminal polyhistidine and DsRed monomer fusion (pET32a); chain copies: 2; label: CyDye5-dUTP incorporated in the synthesized complementary strand; 3' TTTTT single-stranded linker to array surface; dsDNA, one strand shown. The procedure, abridged:
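The binding signal is fluorescence intensity per feature, in arbitrary units, read on an Axon 4000B scanner. Polyhistidine- and DsRed-tagged transcription factors (N-terminal fusions) from E. coli BL21-CodonPlus were purified on Ni–NTA and applied at 200 nM for 1 h at 25 °C to a double-stranded, BSA-blocked custom Agilent array in buffer with 50 µM zinc acetate.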
On to “TAAGAAATACTAGAAGGATCAAGATGTACAAATTCCACAACGGAGTCACCTAGTGCAG”, for which the binding signal was 3760 fluorescence intensity (a.u.).

As for “GGAAGTCGAATCCCGGGCCGAGGTTGGCGACGGTGGCGGGCGGAGTCACCTAGTGCAG”, the binding signal was 3160 fluorescence intensity (a.u.).

In the case of “AGTTGATAAATTTCAGAAAATTTTGATGACAAAGCAAAGCCGGAGTCACCTAGTGCAG”, the binding signal was 5580 fluorescence intensity (a.u.).

Take “CTTCAGGGGCAAATTAGTCATTTTCCCCACATGTCAGAGCCGGAGTCACCTAGTGCAG”: the binding signal is 3370 fluorescence intensity (a.u.).

Turning to “TTGTTTCTTGGTTATCACCCGCCGTGTGACTTCCGTGTTCCGGAGTCACCTAGTGCAG”, the binding signal was 3280 fluorescence intensity (a.u.).

With “TGTATGCACCTCAAAACTGACTCAATCTCTTCCATACCCTCGGAGTCACCTAGTGCAG”, the binding signal is 4580 fluorescence intensity (a.u.).

With “TCTTTTCTAAGTCATGTTAGACCAATAGAGATTTCTCAAACGGAGTCACCTAGTGCAG”, the binding signal is 27600 fluorescence intensity (a.u.).

As to “TCTTTTCAGCCCCGCCTAGTCCGTCACCTTTCTCTGCTCGCGGAGTCACCTAGTGCAG”, the binding signal is 4080 fluorescence intensity (a.u.).

Consider “TTAAGTGTTCCACGCAAAACGAGGTGGTAATAACGTGTGACGGAGTCACCTAGTGCAG”, for which the binding signal is 3740 fluorescence intensity (a.u.).

In the case of “CGCCGATCTGACGCGTCGTCATCAACGATTGCTAGATAGCCGGAGTCACCTAGTGCAG”, the binding signal was 6730 fluorescence intensity (a.u.).

Turning to “AGGACGAGACCCCATCCAACCACCCCAGCCACGTCAGCAACGGAGTCACCTAGTGCAG”, the binding signal was 34000 fluorescence intensity (a.u.).

As to “GTCTCCGCGTCACTGAAATTCCCCACCCACGCATCGCACCCGGAGTCACCTAGTGCAG”, the binding signal was 5360 fluorescence intensity (a.u.).

Consider “ATCCTGCATTAGCTCTCCTTCCCTTTGTTTTCAGAAGGAACGGAGTCACCTAGTGCAG”, for which the binding signal was 30600 fluorescence intensity (a.u.).

As to “CTACATCATACACTGTGTAGATTCAGGATGGTGTAAGCAGCGGAGTCACCTAGTGCAG”, the binding signal was 3560 fluorescence intensity (a.u.).

Turning to “CCGCTCCGCCTACTCTGGCCACGCGCTGACGCCGCGTCCCCGGAGTCACCTAGTGCAG”, the binding signal was 7060 fluorescence intensity (a.u.).

For “CCAACTACTATGACACATCACAGTAGGTCAACATCATCTCCGGAGTCACCTAGTGCAG”, the binding signal is 10200 fluorescence intensity (a.u.).

With “CGCGCGCGCGTGCGTGCGTGCGTGTGGGTGGGTGGGTGGACGGAGTCACCTAGTGCAG”, the binding signal is 7030 fluorescence intensity (a.u.).

Take “CTCAAAGCAAGATCATAACGAACCTACCCACGTGTTGGCACGGAGTCACCTAGTGCAG”: the binding signal was 4560 fluorescence intensity (a.u.).

On to “CGGAAGAGAGCTCAAGTACCGGGACGTCTTCCTCGTCTGCCGGAGTCACCTAGTGCAG”, for which the binding signal is 3460 fluorescence intensity (a.u.).

In the case of “GGAGAACGAAGCCAGCTCATCAATCTGCGACGAGGATCATCGGAGTCACCTAGTGCAG”, the binding signal is 6590 fluorescence intensity (a.u.).

Consider “GCGGACCGCCGGTCGAACGCTCGAACCGCATTGCCAGCGTCGGAGTCACCTAGTGCAG”, for which the binding signal was 31200 fluorescence intensity (a.u.).

In the case of “TAGAATTGTCAAGTCAATGCCACGTGGGACAAAGACCTAGCGGAGTCACCTAGTGCAG”, the binding signal was 17900 fluorescence intensity (a.u.).

With “AGTCGGGTAGGGTGTGCGTGTGTGCGTTCATAGGGGTGTGCGGAGTCACCTAGTGCAG”, the binding signal was 5880 fluorescence intensity (a.u.).

For the sequence “GCTACTACGTGTATTACGTAAGCAGGACTATGCGACCATACGGAGTCACCTAGTGCAG”, the binding signal was 4050 fluorescence intensity (a.u.).

Consider “GGGGTACAGTGACGATGACTCAACCTGCCTGGCGCGGTGCCGGAGTCACCTAGTGCAG”, for which the binding signal was 7580 fluorescence intensity (a.u.).

Turning to “AGCGAACGTTCGCCGACTAATTATCTAGCGAATCACTCGGCGGAGTCACCTAGTGCAG”, the binding signal is 3630 fluorescence intensity (a.u.).

In the case of “CCACGCTGACTCAGCAGCCACGTAGGATAAAACTGGGGTCCGGAGTCACCTAGTGCAG”, the binding signal was 34000 fluorescence intensity (a.u.).

As for “AAAATCAAGAAATCCAGTGCAGAAAACCTAAAACACCAAACGGAGTCACCTAGTGCAG”, the binding signal was 31900 fluorescence intensity (a.u.).

Turning to “GTAGAGACCAAATTACCCCTGCATCCCTTTCAATAGCTGGCGGAGTCACCTAGTGCAG”, the binding signal is 35300 fluorescence intensity (a.u.).

For the sequence “ACCGCCCCAATCTCCCACTACCTCCACCTCCTCCGCTCCCCGGAGTCACCTAGTGCAG”, the binding signal is 4060 fluorescence intensity (a.u.).

Take “AACTCTTCTTCTATAATGAGTCATCTACTTCTCCGATCTCCGGAGTCACCTAGTGCAG”: the binding signal is 12900 fluorescence intensity (a.u.).

As for “AGATCACGTTAGTCAATGTGTCATGGGCTTTGGGCCGGGTCGGAGTCACCTAGTGCAG”, the binding signal was 4220 fluorescence intensity (a.u.).

Take “ACCAACAACAACAACAACAACGTCATGGTATACTGTCAGTCGGAGTCACCTAGTGCAG”: the binding signal was 18900 fluorescence intensity (a.u.).

On to “GGAGATTGACACGTTGGTCTACGTGCCTATGCGTGTGTTCCGGAGTCACCTAGTGCAG”, for which the binding signal was 8730 fluorescence intensity (a.u.).

“CATCCTCCTCCTTCGCCGCCTCCATCGGTCACCGCCGCCCCGGAGTCACCTAGTGCAG”: the binding signal was 9940 fluorescence intensity (a.u.).

On to “TTTATTATTAGACTACGTTTAATACTTTAAATATGTGTCCCGGAGTCACCTAGTGCAG”, for which the binding signal was 3340 fluorescence intensity (a.u.).

Turning to “ATCAAATTGCCAAGTAAGCGCCACGTTATTACCAAGACTGCGGAGTCACCTAGTGCAG”, the binding signal was 10600 fluorescence intensity (a.u.).

On to “GAGGATCTTATGTTTAGCAAATTTAGCCCATTGTAAATTTCGGAGTCACCTAGTGCAG”, for which the binding signal was 3210 fluorescence intensity (a.u.).

Consider “GATTAATTCACTACTGCTTCCTCCATGTCATATTATAAGACGGAGTCACCTAGTGCAG”, for which the binding signal was 4820 fluorescence intensity (a.u.).

As for “GCGTGCGCGTCGACGTCGTCACCGCCGTCCACGGCGTAGTCGGAGTCACCTAGTGCAG”, the binding signal was 5680 fluorescence intensity (a.u.).

As to “AGTGTTACTGCACGATATATACACGTTACCACCTGATAGTCGGAGTCACCTAGTGCAG”, the binding signal was 3350 fluorescence intensity (a.u.).

As for “CTTTCCTCTACACTAGTGGGTGGCGCCGTGGGTGGGAGGGCGGAGTCACCTAGTGCAG”, the binding signal is 4340 fluorescence intensity (a.u.).

The values above are taken from article PMC7819943, “Rice protein-binding microarrays: a tool to detect cis-acting elements near promoter regions in rice”.
